Reference: article PMC4695059
Results are given in words; binding and its absence hold for the method and conditions named. Binding seen in cells or lysates may run through a third protein. Here binding means that the protein was enriched with, or labelled near, the bait; the list need not be complete.

Sequences of proteins named here, by UniProt entry; tags and fusion partners are left off.
UniProt Q8IUF8: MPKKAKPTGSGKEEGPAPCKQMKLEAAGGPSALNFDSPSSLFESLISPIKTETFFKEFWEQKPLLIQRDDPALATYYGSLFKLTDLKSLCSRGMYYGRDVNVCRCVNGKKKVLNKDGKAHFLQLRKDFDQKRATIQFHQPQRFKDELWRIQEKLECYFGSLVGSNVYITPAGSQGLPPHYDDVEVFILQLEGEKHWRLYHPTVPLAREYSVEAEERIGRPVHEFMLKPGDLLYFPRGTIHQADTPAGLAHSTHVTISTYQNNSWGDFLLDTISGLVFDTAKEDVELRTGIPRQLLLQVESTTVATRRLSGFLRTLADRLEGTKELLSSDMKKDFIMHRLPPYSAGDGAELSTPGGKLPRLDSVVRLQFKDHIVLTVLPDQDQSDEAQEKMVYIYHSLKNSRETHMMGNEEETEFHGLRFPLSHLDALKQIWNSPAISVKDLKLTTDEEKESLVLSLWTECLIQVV
UniProt Q9BUH6: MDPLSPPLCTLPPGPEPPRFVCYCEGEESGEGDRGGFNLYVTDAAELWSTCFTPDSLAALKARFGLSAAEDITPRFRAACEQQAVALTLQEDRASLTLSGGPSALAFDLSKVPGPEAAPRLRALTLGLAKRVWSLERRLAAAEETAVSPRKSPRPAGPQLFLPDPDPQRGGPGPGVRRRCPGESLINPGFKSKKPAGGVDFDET
UniProt P78527: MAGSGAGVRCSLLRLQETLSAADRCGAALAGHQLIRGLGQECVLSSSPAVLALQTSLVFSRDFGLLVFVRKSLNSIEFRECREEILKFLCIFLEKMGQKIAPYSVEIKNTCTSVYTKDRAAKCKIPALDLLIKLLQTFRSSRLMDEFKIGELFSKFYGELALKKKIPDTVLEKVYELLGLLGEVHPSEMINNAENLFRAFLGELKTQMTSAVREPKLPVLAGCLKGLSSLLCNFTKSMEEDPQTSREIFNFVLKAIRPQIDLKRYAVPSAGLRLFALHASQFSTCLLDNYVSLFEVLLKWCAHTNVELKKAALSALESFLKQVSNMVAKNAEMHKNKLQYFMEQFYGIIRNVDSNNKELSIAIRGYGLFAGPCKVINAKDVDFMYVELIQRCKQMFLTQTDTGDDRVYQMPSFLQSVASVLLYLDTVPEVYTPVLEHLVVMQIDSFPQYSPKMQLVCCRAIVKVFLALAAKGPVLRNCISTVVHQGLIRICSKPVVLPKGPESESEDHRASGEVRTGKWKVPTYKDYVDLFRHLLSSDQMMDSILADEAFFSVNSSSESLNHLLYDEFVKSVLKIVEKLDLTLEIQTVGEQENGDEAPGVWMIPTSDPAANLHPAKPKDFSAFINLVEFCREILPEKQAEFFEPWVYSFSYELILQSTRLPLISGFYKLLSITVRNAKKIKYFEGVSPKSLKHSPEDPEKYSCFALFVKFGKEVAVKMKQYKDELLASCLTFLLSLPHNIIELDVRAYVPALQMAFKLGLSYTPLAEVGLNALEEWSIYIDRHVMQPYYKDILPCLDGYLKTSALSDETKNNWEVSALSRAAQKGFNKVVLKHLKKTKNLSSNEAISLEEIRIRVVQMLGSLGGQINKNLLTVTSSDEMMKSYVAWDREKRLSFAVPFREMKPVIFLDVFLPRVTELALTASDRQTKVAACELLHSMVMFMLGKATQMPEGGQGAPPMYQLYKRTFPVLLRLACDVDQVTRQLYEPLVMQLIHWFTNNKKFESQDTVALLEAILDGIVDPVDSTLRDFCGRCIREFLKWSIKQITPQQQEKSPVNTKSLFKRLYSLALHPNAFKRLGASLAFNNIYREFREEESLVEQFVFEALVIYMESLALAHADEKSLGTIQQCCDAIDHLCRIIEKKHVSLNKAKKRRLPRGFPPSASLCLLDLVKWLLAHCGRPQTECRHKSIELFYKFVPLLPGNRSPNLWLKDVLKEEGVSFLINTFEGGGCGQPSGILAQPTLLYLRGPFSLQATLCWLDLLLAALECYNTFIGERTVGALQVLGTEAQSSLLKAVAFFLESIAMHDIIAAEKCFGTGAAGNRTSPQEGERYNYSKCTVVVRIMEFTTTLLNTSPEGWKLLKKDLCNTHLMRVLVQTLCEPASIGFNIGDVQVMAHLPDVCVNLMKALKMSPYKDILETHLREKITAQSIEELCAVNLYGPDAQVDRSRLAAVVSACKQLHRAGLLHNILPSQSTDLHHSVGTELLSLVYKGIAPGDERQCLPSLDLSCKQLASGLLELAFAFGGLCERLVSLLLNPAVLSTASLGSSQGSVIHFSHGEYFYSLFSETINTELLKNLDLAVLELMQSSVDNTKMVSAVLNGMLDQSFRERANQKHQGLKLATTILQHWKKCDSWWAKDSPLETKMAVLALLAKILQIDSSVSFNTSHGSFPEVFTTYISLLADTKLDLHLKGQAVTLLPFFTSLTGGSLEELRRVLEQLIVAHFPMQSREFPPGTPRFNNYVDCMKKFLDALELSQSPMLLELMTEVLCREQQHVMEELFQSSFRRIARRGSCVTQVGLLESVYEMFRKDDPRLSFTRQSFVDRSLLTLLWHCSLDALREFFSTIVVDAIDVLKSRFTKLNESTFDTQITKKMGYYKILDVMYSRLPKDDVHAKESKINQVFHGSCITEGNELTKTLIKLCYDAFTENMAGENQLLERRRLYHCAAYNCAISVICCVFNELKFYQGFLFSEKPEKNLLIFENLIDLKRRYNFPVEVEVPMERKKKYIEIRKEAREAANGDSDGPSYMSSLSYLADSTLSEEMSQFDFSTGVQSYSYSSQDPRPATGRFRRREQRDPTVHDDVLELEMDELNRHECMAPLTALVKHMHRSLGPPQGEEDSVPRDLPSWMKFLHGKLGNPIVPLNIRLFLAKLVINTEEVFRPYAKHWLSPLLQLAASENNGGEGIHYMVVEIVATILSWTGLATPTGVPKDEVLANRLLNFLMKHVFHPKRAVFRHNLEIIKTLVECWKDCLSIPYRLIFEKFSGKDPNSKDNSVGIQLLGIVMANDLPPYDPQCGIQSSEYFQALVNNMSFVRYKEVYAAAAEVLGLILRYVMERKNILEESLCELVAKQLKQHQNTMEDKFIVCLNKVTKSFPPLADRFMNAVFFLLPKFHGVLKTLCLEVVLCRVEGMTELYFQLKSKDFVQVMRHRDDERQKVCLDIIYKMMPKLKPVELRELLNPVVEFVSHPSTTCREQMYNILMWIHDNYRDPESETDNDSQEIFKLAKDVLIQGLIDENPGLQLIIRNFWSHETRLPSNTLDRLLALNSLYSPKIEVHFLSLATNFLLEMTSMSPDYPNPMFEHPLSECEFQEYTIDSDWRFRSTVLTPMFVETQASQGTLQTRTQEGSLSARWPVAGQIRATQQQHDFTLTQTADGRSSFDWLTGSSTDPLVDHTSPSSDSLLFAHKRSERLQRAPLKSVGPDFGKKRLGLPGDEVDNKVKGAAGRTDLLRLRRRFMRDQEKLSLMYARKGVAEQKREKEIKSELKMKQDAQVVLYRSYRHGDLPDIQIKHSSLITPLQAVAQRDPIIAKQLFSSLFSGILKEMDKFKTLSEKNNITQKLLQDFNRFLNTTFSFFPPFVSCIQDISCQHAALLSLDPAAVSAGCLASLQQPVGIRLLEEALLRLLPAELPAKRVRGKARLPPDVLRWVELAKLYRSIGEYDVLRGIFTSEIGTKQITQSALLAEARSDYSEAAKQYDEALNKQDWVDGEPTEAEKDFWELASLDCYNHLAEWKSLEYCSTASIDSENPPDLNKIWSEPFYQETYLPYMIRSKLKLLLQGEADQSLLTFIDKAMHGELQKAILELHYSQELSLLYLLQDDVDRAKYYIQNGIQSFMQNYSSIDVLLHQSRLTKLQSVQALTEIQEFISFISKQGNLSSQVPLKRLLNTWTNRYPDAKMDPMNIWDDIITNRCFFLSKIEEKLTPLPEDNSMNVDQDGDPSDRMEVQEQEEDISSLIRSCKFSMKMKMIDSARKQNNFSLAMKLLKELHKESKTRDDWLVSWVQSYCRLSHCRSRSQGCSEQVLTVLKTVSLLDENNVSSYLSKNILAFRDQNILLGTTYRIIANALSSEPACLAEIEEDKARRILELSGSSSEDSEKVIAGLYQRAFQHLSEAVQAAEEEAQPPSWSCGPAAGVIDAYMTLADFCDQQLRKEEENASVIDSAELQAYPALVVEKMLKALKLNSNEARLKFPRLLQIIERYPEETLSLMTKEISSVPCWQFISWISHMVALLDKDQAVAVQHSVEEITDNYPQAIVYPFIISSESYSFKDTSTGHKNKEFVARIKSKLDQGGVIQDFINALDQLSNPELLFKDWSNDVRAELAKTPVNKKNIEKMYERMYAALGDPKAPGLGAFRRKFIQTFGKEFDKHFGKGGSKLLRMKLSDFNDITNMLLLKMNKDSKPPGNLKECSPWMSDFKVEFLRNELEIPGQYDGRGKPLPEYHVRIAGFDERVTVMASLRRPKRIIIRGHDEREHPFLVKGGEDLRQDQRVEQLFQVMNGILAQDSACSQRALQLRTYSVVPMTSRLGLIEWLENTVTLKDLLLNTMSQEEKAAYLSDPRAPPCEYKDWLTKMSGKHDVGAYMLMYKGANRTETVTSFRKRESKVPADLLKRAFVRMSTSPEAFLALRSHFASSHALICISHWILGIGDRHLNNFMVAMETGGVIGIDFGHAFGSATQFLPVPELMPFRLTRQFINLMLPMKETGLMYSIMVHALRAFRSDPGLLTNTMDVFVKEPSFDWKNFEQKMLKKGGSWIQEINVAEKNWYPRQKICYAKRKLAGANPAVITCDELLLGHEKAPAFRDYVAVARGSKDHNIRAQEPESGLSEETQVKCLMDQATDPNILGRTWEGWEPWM
UniProt Q09028: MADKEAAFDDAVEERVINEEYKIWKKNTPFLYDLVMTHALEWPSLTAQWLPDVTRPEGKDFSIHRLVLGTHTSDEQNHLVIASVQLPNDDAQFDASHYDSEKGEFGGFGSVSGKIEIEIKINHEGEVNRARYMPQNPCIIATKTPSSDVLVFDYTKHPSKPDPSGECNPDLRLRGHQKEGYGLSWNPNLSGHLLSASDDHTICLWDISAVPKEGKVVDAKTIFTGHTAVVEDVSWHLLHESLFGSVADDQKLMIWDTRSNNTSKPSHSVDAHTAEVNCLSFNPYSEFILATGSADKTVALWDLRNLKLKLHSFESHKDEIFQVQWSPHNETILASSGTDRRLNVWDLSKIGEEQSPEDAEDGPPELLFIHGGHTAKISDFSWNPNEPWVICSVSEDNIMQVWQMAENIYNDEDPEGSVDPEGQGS
UniProt Q9HC52: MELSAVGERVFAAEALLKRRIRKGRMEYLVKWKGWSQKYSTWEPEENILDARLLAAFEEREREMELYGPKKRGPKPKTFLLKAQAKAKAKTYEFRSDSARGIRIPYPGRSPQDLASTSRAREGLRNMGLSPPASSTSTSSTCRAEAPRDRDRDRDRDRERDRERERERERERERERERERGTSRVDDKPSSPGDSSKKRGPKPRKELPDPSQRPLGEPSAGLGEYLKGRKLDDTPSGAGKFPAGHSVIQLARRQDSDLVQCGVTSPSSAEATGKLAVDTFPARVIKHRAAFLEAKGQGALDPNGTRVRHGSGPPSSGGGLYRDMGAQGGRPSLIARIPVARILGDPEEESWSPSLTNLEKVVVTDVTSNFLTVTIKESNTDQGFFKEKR
UniProt Q9H7E2: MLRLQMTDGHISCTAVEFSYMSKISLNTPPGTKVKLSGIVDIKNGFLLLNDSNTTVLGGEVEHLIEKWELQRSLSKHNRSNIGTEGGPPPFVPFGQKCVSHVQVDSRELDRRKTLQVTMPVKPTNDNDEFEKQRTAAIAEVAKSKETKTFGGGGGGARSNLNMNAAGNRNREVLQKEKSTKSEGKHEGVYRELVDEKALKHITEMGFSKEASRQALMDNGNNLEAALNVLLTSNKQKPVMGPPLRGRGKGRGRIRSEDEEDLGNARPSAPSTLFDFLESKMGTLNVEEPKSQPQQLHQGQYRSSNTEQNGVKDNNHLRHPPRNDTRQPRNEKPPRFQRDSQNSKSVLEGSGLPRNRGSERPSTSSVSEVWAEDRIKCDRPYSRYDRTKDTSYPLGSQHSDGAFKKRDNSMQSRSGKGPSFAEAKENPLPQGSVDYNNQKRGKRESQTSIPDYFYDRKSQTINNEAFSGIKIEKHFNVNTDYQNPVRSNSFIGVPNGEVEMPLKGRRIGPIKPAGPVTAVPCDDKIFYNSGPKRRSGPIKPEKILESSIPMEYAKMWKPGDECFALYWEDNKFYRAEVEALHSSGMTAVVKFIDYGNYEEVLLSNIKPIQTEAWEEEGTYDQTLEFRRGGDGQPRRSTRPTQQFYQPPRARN

Tests used:
[1] = target: mineral dust-induced gene (mdig) protein (human (endogenous in A549, BEAS-2B, H929)) (UniProt Q8IUF8); experiment: affinity purification with mass spectrometry; IP of endogenous mdig from BEAS-2B lysate against control IgG, proteomic profiling, compared with A549
[2] = target: mineral dust-induced gene (mdig) protein (human (endogenous in A549, BEAS-2B, H929)) (UniProt Q8IUF8); experiment: affinity purification with mass spectrometry; IP of endogenous mdig from A549 lysate against control IgG; whole gel lanes sliced; 3 independent experiments, two laboratories with different MS/MS systems (Orbitrap Fusion, Orbitrap XL); set of 207 proteins
[3] = target: mineral dust-induced gene (mdig) protein (human (endogenous in A549, BEAS-2B, H929)) (UniProt Q8IUF8); experiment: affinity purification with mass spectrometry; IP of endogenous mdig with rabbit polyclonal anti-mdig antibody on Protein A/G PLUS-Agarose from A549 lysate (1% Nonidet P-40, 137 mM NaCl, 20 mM Tris-HCl pH 7.5, 4°C overnight); three Coomassie bands of about 80, 60 and 45 kDa excised, against the same positions of the control IgG lane; Orbitrap Fusion MS/MS

| Molecule | binding [1] | binding [2] | binding [3] |
| --- | --- | --- | --- |
| PAXX (from UniProt Q9BUH6 1-204) | binds | binds |  |
| DNA-PK (PRKDC) (from UniProt P78527 1-4128) |  | binds |  |
| retinoblastoma-binding protein 4 (RBBP4) (from UniProt Q09028 1-425) |  | binds | binds |
| Rho guanine nucleotide exchange factor 12 (ARHGEF12) (from UniProt Q9NZN5 1-1544) | binds | binds |  |
| CBX8 (from UniProt Q9HC52 1-389) |  |  | binds |
| RFC2 (from UniProt P35250 1-354) |  | binds |  |
| KAT7 (from UniProt O95251 1-611) |  |  | binds |
| TDRD3 (from UniProt Q9H7E2 1-651) |  | binds | binds |
| RIF1 (from UniProt Q5UIP0 1-2472) | binds | binds |  |
| DDX18 (protein, UniProt Q9NVP1 1-670) MSHLPMKLLRKKIEKRNLKLRQRNLKFQGASNLTLSETQNGDVSEETMGSRKVKKSKQKPMNVGLSETQNGGMSQEAVGNIKVTKSPQKSTVLTNGEAAMQSSNSESKKKKKKKRKMVNDAEPDTKKAKTENKGKSEEESAETTKETENNVEKPDNDEDESEVPSLPLGLTGAFEDTSFASLCNLVNENTLKAIKEMGFTNMTEIQHKSIRPLLEGRDLLAAAKTGSGKTLAFLIPAVELIVKLRFMPRNGTGVLILSPTRELAMQTFGVLKELMTHHVHTYGLIMGGSNRSAEAQKLGNGINIIVATPGRLLDHMQNTPGFMYKNLQCLVIDEADRILDVGFEEELKQIIKLLPTRRQTMLFSATQTRKVEDLARISLKKEPLYVGVDDDKANATVDGLEQGYVVCPSEKRFLLLFTFLKKNRKKKLMVFFSSCMSVKYHYELLNYIDLPVLAIHGKQKQNKRTTTFFQFCNADSGTLLCTDVAARGLDIPEVDWIVQYDPPDDPKEYIHRVGRTARGLNGRGHALLILRPEELGFLRYLKQSKVPLSEFDFSWSKISDIQSQLEKLIEKNYFLHKSAQEAYKSYIRAYDSHSLKQIFNVNNLNLPQVALSFGFKVPPFVDLNVNSNEGKQKKRGGGGGFGYQKTKKVEKSKIFKHISKKSSDSRQFSH |  |  | binds |
| RFC1 (protein, UniProt P35251 1-1148) MDIRKFFGVIPSGKKLVSETVKKNEKTKSDEETLKAKKGIKEIKVNSSRKEDDFKQKQPSKKKRIIYDSDSESEETLQVKNAKKPPEKLPVSSKPGKISRQDPVTYISETDEEDDFMCKKAASKSKENGRSTNSHLGTSNMKKNEENTKTKNKPLSPIKLTPTSVLDYFGTGSVQRSNKKMVASKRKELSQNTDESGLNDEAIAKQLQLDEDAELERQLHEDEEFARTLAMLDEEPKTKKARKDTEAGETFSSVQANLSKAEKHKYPHKVKTAQVSDERKSYSPRKQSKYESSKESQQHSKSSADKIGEVSSPKASSKLAIMKRKEESSYKEIEPVASKRKENAIKLKGETKTPKKTKSSPAKKESVSPEDSEKKRTNYQAYRSYLNREGPKALGSKEIPKGAENCLEGLIFVITGVLESIERDEAKSLIERYGGKVTGNVSKKTNYLVMGRDSGQSKSDKAAALGTKIIDEDGLLNLIRTMPGKKSKYEIAVETEMKKESKLERTPQKNVQGKRKISPSKKESESKKSRPTSKRDSLAKTIKKETDVFWKSLDFKEQVAEETSGDSKARNLADDSSENKVENLLWVDKYKPTSLKTIIGQQGDQSCANKLLRWLRNWQKSSSEDKKHAAKFGKFSGKDDGSSFKAALLSGPPGVGKTTTASLVCQELGYSYVELNASDTRSKSSLKAIVAESLNNTSIKGFYSNGAASSVSTKHALIMDEVDGMAGNEDRGGIQELIGLIKHTKIPIICMCNDRNHPKIRSLVHYCFDLRFQRPRVEQIKGAMMSIAFKEGLKIPPPAMNEIILGANQDIRQVLHNLSMWCARSKALTYDQAKADSHRAKKDIKMGPFDVARKVFAAGEETAHMSLVDKSDLFFHDYSIAPLFVQENYIHVKPVAAGGDMKKHLMLLSRAADSICDGDLVDSQIRSKQNWSLLPAQAIYASVLPGELMRGYMTQFPTFPSWLGKHSSTGKHDRIVQDLALHMSLRTYSSKRTVNMDYLSLLRDALVQPLTSQGVDGVQDVVALMDTYYLMKEDFENIMEISSWGGKPSPFSKLDPKVKAAFTRAYNKEAHLTPYSLQAIKASRHSTSPSLDSEYNEELNEDDSQSDEKDQDAIETDAMIKKKTKSSKPSKPEKDKEPRKGKGKSSKK |  | binds |  |
| POLD3 (protein, UniProt Q15054 1-466) MADQLYLENIDEFVTDQNKIVTYKWLSYTLGVHVNQAKQMLYDYVERKRKENSGAQLHVTYLVSGSLIQNGHSCHKVAVVREDKLEAVKSKLAVTASIHVYSIQKAMLKDSGPLFNTDYDILKSNLQNCSKFSAIQCAAAVPRAPAESSSSSKKFEQSHLHMSSETQANNELTTNGHGPPASKQVSQQPKGIMGMFASKAAAKTQETNKETKTEAKEVTNASAAGNKAPGKGNMMSNFFGKAAMNKFKVNLDSEQAVKEEKIVEQPTVSVTEPKLATPAGLKKSSKKAEPVKVLQKEKKRGKRVALSDDETKETENMRKKRRRIKLPESDSSEDEVFPDSPGAYEAESPSPPPPPSPPLEPVPKTEPEPPSVKSSSGENKRKRKRVLKSKTYLDGEGCIVTEKVYESESCTDSEEELNMKTSSVHRPPAMTVKKEPREERKGPKKGTAALGKANRQVSITGFFQRK |  | binds |  |
| DDX1 (protein, UniProt Q92499 1-740) MAAFSEMGVMPEIAQAVEEMDWLLPTDIQAESIPLILGGGDVLMAAETGSGKTGAFSIPVIQIVYETLKDQQEGKKGKTTIKTGASVLNKWQMNPYDRGSAFAIGSDGLCCQSREVKEWHGCRATKGLMKGKHYYEVSCHDQGLCRVGWSTMQASLDLGTDKFGFGFGGTGKKSHNKQFDNYGEEFTMHDTIGCYLDIDKGHVKFSKNGKDLGLAFEIPPHMKNQALFPACVLKNAELKFNFGEEEFKFPPKDGFVALSKAPDGYIVKSQHSGNAQVTQTKFLPNAPKALIVEPSRELAEQTLNNIKQFKKYIDNPKLRELLIIGGVAARDQLSVLENGVDIVVGTPGRLDDLVSTGKLNLSQVRFLVLDEADGLLSQGYSDFINRMHNQIPQVTSDGKRLQVIVCSATLHSFDVKKLSEKIMHFPTWVDLKGEDSVPDTVHHVVVPVNPKTDRLWERLGKSHIRTDDVHAKDNTRPGANSPEMWSEAIKILKGEYAVRAIKEHKMDQAIIFCRTKIDCDNLEQYFIQQGGGPDKKGHQFSCVCLHGDRKPHERKQNLERFKKGDVRFLICTDVAARGIDIHGVPYVINVTLPDEKQNYVHRIGRVGRAERMGLAISLVATEKEKVWYHVCSSRGKGCYNTRLKEDGGCTIWYNEMQLLSEIEEHLNCTISQVEPDIKVPVDEFDGKVTYGQKRAAGGGSYKGHVDILAPTVQELAALEKEAQTSFLHLGYLPNQLFRTF |  | binds |  |
| CENPB (protein, UniProt P07199 1-599) MGPKRRQLTFREKSRIIQEVEENPDLRKGEIARRFNIPPSTLSTILKNKRAILASERKYGVASTCRKTNKLSPYDKLEGLLIAWFQQIRAAGLPVKGIILKEKALRIAEELGMDDFTASNGWLDRFRRRHGVVSCSGVARARARNAAPRTPAAPASPAAVPSEGSGGSTTGWRAREEQPPSVAEGYASQDVFSATETSLWYDFLPDQAAGLCGGDGRPRQATQRLSVLLCANADGSEKLPPLVAGKSAKPRAGQAGLPCDYTANSKGGVTTQALAKYLKALDTRMAAESRRVLLLAGRLAAQSLDTSGLRHVQLAFFPPGTVHPLERGVVQQVKGHYRQAMLLKAMAALEGQDPSGLQLGLTEALHFVAAAWQAVEPSDIAACFREAGFGGGPNATITTSLKSEGEEEEEEEEEEEEEEGEGEEEEEEGEEEEEEGGEGEELGEEEEVEEEGDVDSDEEEEEDEESSSEGLEAEDWAQGVVEAGGSFGAYGAQEEAQCPTLHFLEGGEDSDSDSEEEDDEEEDDEDEDDDDDEEDGDEVPVPSFGEAMAYFAMVKRYLTSFPIDDRVQSHILHLEHDLVHVTRKNHARQAGVRGLGHQS |  |  | binds |
